Assay results from patent US20160108128A1 (CANCER RESEARCH TECHNOLOGY, published 2016).
These are yes or no findings as the source states them, for the method shown. Some results given as binding are weak or reduced against the parent protein; the word gives no strength.

Protein sequences, listed by entry. Tags and fused reporters are not part of them. Residues count along the entry.
UniProt P78504, residues 34-1218: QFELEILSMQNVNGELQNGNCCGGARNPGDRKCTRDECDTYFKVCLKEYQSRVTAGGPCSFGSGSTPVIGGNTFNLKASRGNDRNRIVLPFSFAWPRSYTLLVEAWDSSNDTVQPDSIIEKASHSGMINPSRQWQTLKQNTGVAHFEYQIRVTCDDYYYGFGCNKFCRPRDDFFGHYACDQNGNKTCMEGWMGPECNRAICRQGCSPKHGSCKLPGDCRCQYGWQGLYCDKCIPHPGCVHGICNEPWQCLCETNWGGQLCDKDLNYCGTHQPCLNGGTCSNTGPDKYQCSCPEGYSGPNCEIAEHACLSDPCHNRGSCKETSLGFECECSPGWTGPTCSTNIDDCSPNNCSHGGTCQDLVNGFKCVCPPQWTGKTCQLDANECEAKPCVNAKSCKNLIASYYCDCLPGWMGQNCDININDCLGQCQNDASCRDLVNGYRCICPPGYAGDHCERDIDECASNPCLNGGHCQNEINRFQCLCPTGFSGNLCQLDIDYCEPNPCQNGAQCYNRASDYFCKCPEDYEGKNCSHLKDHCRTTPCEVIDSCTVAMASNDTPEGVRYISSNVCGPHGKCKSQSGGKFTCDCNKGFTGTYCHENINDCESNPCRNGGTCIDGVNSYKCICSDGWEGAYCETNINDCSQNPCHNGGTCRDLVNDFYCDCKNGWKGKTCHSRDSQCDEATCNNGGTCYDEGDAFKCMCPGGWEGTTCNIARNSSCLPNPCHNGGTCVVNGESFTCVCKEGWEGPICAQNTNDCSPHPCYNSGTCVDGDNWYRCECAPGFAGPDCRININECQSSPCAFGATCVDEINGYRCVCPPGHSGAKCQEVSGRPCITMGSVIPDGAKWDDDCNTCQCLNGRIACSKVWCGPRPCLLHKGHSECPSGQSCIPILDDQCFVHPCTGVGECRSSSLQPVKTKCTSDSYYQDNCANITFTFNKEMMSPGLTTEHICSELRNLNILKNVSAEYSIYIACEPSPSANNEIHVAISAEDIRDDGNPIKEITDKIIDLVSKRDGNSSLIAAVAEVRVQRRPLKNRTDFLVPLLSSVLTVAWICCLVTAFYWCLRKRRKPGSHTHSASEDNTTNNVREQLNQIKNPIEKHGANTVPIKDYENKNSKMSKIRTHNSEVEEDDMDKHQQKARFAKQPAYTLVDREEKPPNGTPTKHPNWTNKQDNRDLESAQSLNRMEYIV

Experiments:
[1] = target: T1, human Jagged 1, full length, on cells (human, UniProt P78504 34-1218); assay: FACS, 293-JAG1 cells
T1 construct: whole, on cells; the cell is named under assay; also called hJ1; J1

[2] = target: T1, human Jagged 1, full length, on cells; assay: FACS, 293-JAG1 cells, anti-human-APC

| Binder | binding [1] | binding [2] |
| --- | --- | --- |
| J1-65D variant 6 (antibody, human IgG1, V domains shown, human IgG1; also called J1-65DV6; V6) VH: QVQLVQSGAELKKPGSSVKVSCKASGYTFTDYEMHWVRQAPGQGLEWMGAIQPGGGGTAYAQKFKGRVTLTADKSTSTAYMELSSLRSEDTAVYYCTRRGYDDYPFAYWGQGTLVTVSS VL: DIQMTQSPSSLSASVGDRVTITCRASGNIHNYLAWYQQKPGKAPKLLIYNAKTLADAVPSRFSGSGSGTDYTLTISSLQPEDFATYYCQHFWSAPWTFGGGTKLEIKR | binds | binds |
| J1-65D variant 1 (antibody, human IgG1, V domains shown, human IgG1; also called J1-65DV1; V1) VH: QVQLVQSGAELKKPGSSVKVSCKASGYTFTDYEMHWVRQAPGQGLEWMGAIQPGGGGTAYNQKFKGRVTLTADKSTSTAYMELSSLRSEDTAVYYCTRRGYDDYPFAYWGQGTLVTVSS VL: DIQMTQSPSSLSASVGDRVTITCRASGNIHNYLAWYQQKPGKAPKLLIYNAKTLADDVPSRFSGSGSGTDYTLTISSLQPEDFATYYCQHFWSAPWTFGGGTKLEIKR | binds | binds |
| J1-65D variant 2 (antibody, human IgG1, V domains shown, human IgG1; also called J1-65DV2; V2) VH: QVQLVQSGAELKKPGSSVKVSCKASGYTFTDYEMHWVRQAPGQGLEWMGAIQPGGGGTAYAQKFKGRVTLTADKSTSTAYMELSSLRSEDTAVYYCTRRGYDDYPFAYWGQGTLVTVSS VL: DIQMTQSPSSLSASVGDRVTITCRASGNIHNYLAWYQQKPGKAPKLLIYNAKTLADDVPSRFSGSGSGTDYTLTISSLQPEDFATYYCQHFWSAPWTFGGGTKLEIKR | binds | binds |
| J1-65D variant 3 (antibody, human IgG1, V domains shown, human IgG1; also called J1-65DV3; V3) VH: QVQLVQSGAEVKKPGSSVKVSCKASGYTFTDYEMHWVRQAPGQGLEWMGAIQPGGGGTAYAQKFQGRVTLTADKSTSTAYMELSSLRSEDTAVYYCTRRGYDDYPFAYWGQGTLVTVSS VL: DIQMTQSPSSLSASVGDRVTITCRASGNIHNYLAWYQQKPGKAPKLLIYNAKTLADDVPSRFSGSGSGTDYTLTISSLQPEDFATYYCQHFWSAPWTFGGGTKLEIKR | binds | binds |
| J1-65D variant 4 (antibody, human IgG1, V domains shown, human IgG1; also called J1-65DV4; V4) VH: QVQLVQSGAEVKKPGSSVKVSCKASGYTFTDYEMHWVRQAPGQGLEWMGAIQPGGGGTAYAQKFQGRVTITADKSTSTAYMELSSLRSEDTAVYYCTRRGYDDYPFAYWGQGTLVTVSS VL: DIQMTQSPSSLSASVGDRVTITCRASGNIHNYLAWYQQKPGKAPKLLIYNAKTLADDVPSRFSGSGSGTDYTLTISSLQPEDFATYYCQHFWSAPWTFGGGTKLEIKR | binds | binds |
| J1-65D variant 5 (antibody, human IgG1, V domains shown, human IgG1; also called J1-65DV5; V5) VH: QVQLVQSGAELKKPGSSVKVSCKASGYTFTDYEMHWVRQAPGQGLEWMGAIQPGGGGTAYNQKFKGRVTLTADKSTSTAYMELSSLRSEDTAVYYCTRRGYDDYPFAYWGQGTLVTVSS VL: DIQMTQSPSSLSASVGDRVTITCRASGNIHNYLAWYQQKPGKAPKLLIYNAKTLADAVPSRFSGSGSGTDYTLTISSLQPEDFATYYCQHFWSAPWTFGGGTKLEIKR | binds | binds |
| J1-65D variant 7 (antibody, human IgG1, V domains shown, human IgG1; also called J1-65DV7; V7) VH: QVQLVQSGAEVKKPGSSVKVSCKASGYTFTDYEMHWVRQAPGQGLEWMGAIQPGGGGTAYAQKFQGRVTLTADKSTSTAYMELSSLRSEDTAVYYCTRRGYDDYPFAYWGQGTLVTVSS VL: DIQMTQSPSSLSASVGDRVTITCRASGNIHNYLAWYQQKPGKAPKLLIYNAKTLADAVPSRFSGSGSGTDYTLTISSLQPEDFATYYCQHFWSAPWTFGGGTKLEIKR | binds | binds |
| J1-65D variant 8 (antibody, human IgG1, V domains shown, human IgG1; also called J1-65DV8; V8) VH: QVQLVQSGAEVKKPGSSVKVSCKASGYTFTDYEMHWVRQAPGQGLEWMGAIQPGGGGTAYAQKFQGRVTITADKSTSTAYMELSSLRSEDTAVYYCTRRGYDDYPFAYWGQGTLVTVSS VL: DIQMTQSPSSLSASVGDRVTITCRASGNIHNYLAWYQQKPGKAPKLLIYNAKTLADAVPSRFSGSGSGTDYTLTISSLQPEDFATYYCQHFWSAPWTFGGGTKLEIKR | binds | binds |
| J1-65D variant 9 (antibody, human IgG1, V domains shown, human IgG1; also called J1-65DV9; V9) VH: QVQLVQSGAELKKPGSSVKVSCKASGYTFTDYEMHWVRQAPGQGLEWMGAIQPGGGGTAYNQKFKGRVTLTADKSTSTAYMELSSLRSEDTAVYYCTRRGYDDYPFAYWGQGTLVTVSS VL: DIQMTQSPSSLSASVGDRVTITCRASGNIHNYLAWYQQKPGKAPKLLIYNAKTLADAVPSRFSGSGSGTDYTLTISSLQPEDFATYYCQHFWSAPWTFGQGTKLEIKR | binds | binds |
| J1-65D variant 10 (antibody, human IgG1, V domains shown, human IgG1; also called J1-65DV10; V10) VH: QVQLVQSGAELKKPGSSVKVSCKASGYTFTDYEMHWVRQAPGQGLEWMGAIQPGGGGTAYAQKFKGRVTLTADKSTSTAYMELSSLRSEDTAVYYCTRRGYDDYPFAYWGQGTLVTVSS VL: DIQMTQSPSSLSASVGDRVTITCRASGNIHNYLAWYQQKPGKAPKLLIYNAKTLADAVPSRFSGSGSGTDYTLTISSLQPEDFATYYCQHFWSAPWTFGQGTKLEIKR | binds | binds |
| J1-65D variant 11 (antibody, human IgG1, V domains shown, human IgG1; also called J1-65DV11; V11) VH: QVQLVQSGAEVKKPGSSVKVSCKASGYTFTDYEMHWVRQAPGQGLEWMGAIQPGGGGTAYAQKFQGRVTLTADKSTSTAYMELSSLRSEDTAVYYCTRRGYDDYPFAYWGQGTLVTVSS VL: DIQMTQSPSSLSASVGDRVTITCRASGNIHNYLAWYQQKPGKAPKLLIYNAKTLADAVPSRFSGSGSGTDYTLTISSLQPEDFATYYCQHFWSAPWTFGQGTKLEIKR | binds | binds |
| J1-65D variant 12 (antibody, human IgG1, V domains shown, human IgG1; also called J1-65DV12; V12) VH: QVQLVQSGAEVKKPGSSVKVSCKASGYTFTDYEMHWVRQAPGQGLEWMGAIQPGGGGTAYAQKFQGRVTITADKSTSTAYMELSSLRSEDTAVYYCTRRGYDDYPFAYWGQGTLVTVSS VL: DIQMTQSPSSLSASVGDRVTITCRASGNIHNYLAWYQQKPGKAPKLLIYNAKTLADAVPSRFSGSGSGTDYTLTISSLQPEDFATYYCQHFWSAPWTFGQGTKLEIKR | binds | binds |
| J1-65D chimeric (antibody, human IgG1, V domains shown, chimeric antibody with unaltered CDRs; vectors encode human IgG1) VH: QVQLQQPGAELVRPGASVKLSCKALGYTFTDYEMHWVKETPVHGLEWIGAIQPGGGGTAYNQKFKGKATLTADKSSSTAYMELSSLTSEDSAVYYCTRRGYDDYPFAYWGQGTLVTVSS VL: DIQLTQSPASLSASVGETVTITCRASGNIHNYLAWYQQKQGKSPQLLVYNAKTLADDIPSRFSGSGSGTQYSLKINSLQPEDFGSYYCQHFWSAPWTFGGGTKLEIK | binds | binds |
| J1-183D variant 10 (antibody, human IgG1, V domains shown, human IgG1; also called J1-183DV10; V10) VH: QVQLVQSGAELKKPGASVKVSCKVSGYAFTDYAIHWIRQAPGQGLEWMGIINTYYGDSKYAQKFQGRVTMTVDTSTSTAYMELSSLRSEDTAVYYCARGYDGFAYWGQGTLVTVSS VL: DIQMTQSPSSLSASVGDRVTITCRTSENIYSYLTWYQQKPGKAPKLLIYNAKILDSGVPSRFSGSGSGTDFTLTISSLQPEDFATYYCQHHYDIPWTFGGGTKLEIKR | binds | binds |
| J1-183D variant 1 (antibody, human IgG1, V domains shown, human IgG1; also called J1-183DV1; V1) VH: QVQLVQSGAELKKPGASVKVSCKVSGYAFTDYAIHWIRQAPGQGLEWMGIINTYYGDSKYNQKFKDRVTMTVDKSTSTAYMELSSLRSEDTAVYYCARGYDGFAYWGQGTLVTVSS VL: DIQMTQSPSSLSASVGDRVTITCRTSENIYSYLTWYQQKPGKAPKLLVYNAKILAAGVPSRFSGSGSGTDFTLTISSLQPEDFATYYCQHHYDIPWTFGGGTKLEIKR | binds | binds |
| J1-183D variant 2 (antibody, human IgG1, V domains shown, human IgG1; also called J1-183DV2; V2) VH: QVQLVQSGAELKKPGASVKVSCKVSGYAFTDYAIHWIRQAPGQGLEWMGIINTYYGDSKYAQKFQGRVTMTVDTSTSTAYMELSSLRSEDTAVYYCARGYDGFAYWGQGTLVTVSS VL: DIQMTQSPSSLSASVGDRVTITCRTSENIYSYLTWYQQKPGKAPKLLVYNAKILAAGVPSRFSGSGSGTDFTLTISSLQPEDFATYYCQHHYDIPWTFGGGTKLEIKR | binds | binds |
| J1-183D variant 3 (antibody, human IgG1, V domains shown, human IgG1; also called J1-183DV3; V3) VH: QVQLVQSGAELKKPGASVKVSCKVSGYAFTDYAIHWVRQAPGQGLEWMGIINTYYGDSKYAQKFQGRVTMTVDTSTSTAYMELSSLRSEDTAVYYCARGYDGFAYWGQGTLVTVSS VL: DIQMTQSPSSLSASVGDRVTITCRTSENIYSYLTWYQQKPGKAPKLLVYNAKILAAGVPSRFSGSGSGTDFTLTISSLQPEDFATYYCQHHYDIPWTFGGGTKLEIKR | binds | binds |
| J1-183D variant 4 (antibody, human IgG1, V domains shown, human IgG1; also called J1-183DV4; V4) VH: QVQLVQSGAEVKKPGASVKVSCKASGYTFTDYAIHWVRQAPGQGLEWMGIINTYYGDSKYAQKFQGRVTMTVDTSTSTAYMELSSLRSEDTAVYYCARGYDGFAYWGQGTLVTVSS VL: DIQMTQSPSSLSASVGDRVTITCRTSENIYSYLTWYQQKPGKAPKLLVYNAKILAAGVPSRFSGSGSGTDFTLTISSLQPEDFATYYCQHHYDIPWTFGGGTKLEIKR | binds | binds |
| J1-183D variant 5 (antibody, human IgG1, V domains shown, human IgG1; also called J1-183DV5; V5) VH: QVQLVQSGAELKKPGASVKVSCKVSGYAFTDYAIHWIRQAPGQGLEWMGIINTYYGDSKYNQKFKDRVTMTVDKSTSTAYMELSSLRSEDTAVYYCARGYDGFAYWGQGTLVTVSS VL: DIQMTQSPSSLSASVGDRVTITCRTSENIYSYLTWYQQKPGKAPKLLIYNAKTLASGVPSRFSGSGSGTDFTLTISSLQPEDFATYYCQHHYDIPWTFGGGTKLEIKR | binds | binds |
| J1-183D variant 6 (antibody, human IgG1, V domains shown, human IgG1; also called J1-183DV6; V6) VH: QVQLVQSGAELKKPGASVKVSCKVSGYAFTDYAIHWIRQAPGQGLEWMGIINTYYGDSKYAQKFQGRVTMTVDTSTSTAYMELSSLRSEDTAVYYCARGYDGFAYWGQGTLVTVSS VL: DIQMTQSPSSLSASVGDRVTITCRTSENIYSYLTWYQQKPGKAPKLLIYNAKTLASGVPSRFSGSGSGTDFTLTISSLQPEDFATYYCQHHYDIPWTFGGGTKLEIKR | binds | binds |
